Test results published in US10376520B2, “Methods for the treatment of cardiovascular disorders” (Galapagos NV, priority 2015, dated 2019).
The source gives many values for each of these; only a part stands here.

Test system: RA patients
Assay: Total cholesterol determination, Study 1 (RA patients with inadequate response to methotrexate, add-on to MTX)
Format: in vivo, human
Conditions: for [total cholesterol] Median CFB: Study 1 24 weeks results
Method: Double-blind, placebo-controlled add on study in subjects with moderately to severely active RA who have an inadequate response to methotrexate (MTX) (oral or parenteral).
595 subjects randomized to one of 6 dose regimens of Compound 1 (dosed as a [Compound 1:HCl:3H2O]) (3 dose levels administered either once or twice daily) or placebo on top of each subject's stable dose of MTX.
Compound 1 (dosed as a [Compound 1:HCl:3H2O]) is dosed for twelve weeks once daily (q.d.) (50 mg, 100 mg or 200 mg) or twice daily (b.i.d.) (25 mg, 50 mg or 100 mg); or placebo.
At Week 12, the subjects on placebo who have not achieved 20% improvement in swollen joint count (SJC66) and tender joint count (TJC68) are re-randomized automatically to receive Compound 1 (dosed as a [Compound 1:HCl:3H2O]) either at 100 mg q.d. or 50 mg b.i.d. doses in a blinded fashion; subjects on 50 mg q.d. who have not achieved 20% improvement in SJC66 and TJC68 will be assigned to 100 mg q.d. and subjects on 25 mg b.i.d. that have not achieved a 20% improvement in SJC66 and TJC68 will be assigned to 50 mg b.i.d. Subjects who switch treatment at week 12 are handled as if they discontinued at week 12 for the purpose of statistical analysis, whereas subjects in the other groups will maintain their randomized treatment until Week 24.
This method is based on the determination of Δ^4 cholestenone after enzymatic cleavage of the cholesterol ester by cholesterol esterase, conversion of cholesterol by cholesterol oxidase, and subsequent measurement by the Trinder reaction of the hydrogen peroxide formed (Allain et al., 1974).
Cholesterol esters are cleaved by the action of cholesterol esterase to yield free cholesterol and fatty acids. Cholesterol oxidase then catalyzes the oxidation of cholesterol to cholest-4-en-3-one and hydrogen peroxide. In the presence of peroxidase, the hydrogen peroxide formed effects the oxidative coupling of phenol and 4-aminophenazone to form a red quinone-imine dye. The color intensity of the dye formed is directly proportional to the cholesterol concentration. It is determined by measuring the increase in absorbance.
Human serum and plasma samples cholesterol determination was done on a Roche/Hitachi Cobas c 701/702 system which automatically calculate the analyte concentration of each sample.

O=C(Nc1nc2cccc(-c3ccc(CN4CCS(=O)(=O)CC4)cc3)n2n1)C1CC1 [Compound 1, cyclopropanecarboxylic acid {5-[4-(1,1-dioxo-thiomorpholin-4-ylmethyl)-phenyl]-[1,2,4]triazolo[1,5-a]pyridin-2yl}-amide]
[total cholesterol] Median CFB (continued 25 mg b.i.d, week 1): 0.15 mmol/L
[total cholesterol] Median CFB (continued 25 mg b.i.d, week 2): 0.10 mmol/L
[total cholesterol] Median CFB (continued 25 mg b.i.d, week 4): 0.10 mmol/L
[total cholesterol] Median CFB (continued 25 mg b.i.d, week 8): 0.05 mmol/L
[total cholesterol] Median CFB (continued 25 mg b.i.d, week 12): 0.24 mmol/L
[total cholesterol] Median CFB (continued 25 mg b.i.d, week 16): 0.10 mmol/L
[total cholesterol] Median CFB (continued 25 mg b.i.d, week 20): 0.25 mmol/L
[total cholesterol] Median CFB (continued 25 mg b.i.d, week 24): 0.19 mmol/L
[total cholesterol] Median CFB (continued 50 mg b.i.d., week 1): 0.21 mmol/L
[total cholesterol] Median CFB (continued 50 mg b.i.d., week 2): 0.17 mmol/L
[total cholesterol] Median CFB (continued 50 mg b.i.d., week 4): 0.28 mmol/L
[total cholesterol] Median CFB (continued 50 mg b.i.d., week 8): 0.22 mmol/L
[total cholesterol] Median CFB (continued 50 mg b.i.d., week 12): 0.23 mmol/L
[total cholesterol] Median CFB (continued 50 mg b.i.d., week 16): 0.22 mmol/L
[total cholesterol] Median CFB (continued 50 mg b.i.d., week 20): 0.37 mmol/L
[total cholesterol] Median CFB (continued 50 mg b.i.d., week 24): 0.26 mmol/L
[total cholesterol] Median CFB (continued 100 mg b.i.d., week 1): 0.28 mmol/L
[total cholesterol] Median CFB (continued 100 mg b.i.d., week 2): 0.31 mmol/L
[total cholesterol] Median CFB (continued 100 mg b.i.d., week 4): 0.45 mmol/L
[total cholesterol] Median CFB (continued 100 mg b.i.d., week 8): 0.55 mmol/L
[total cholesterol] Median CFB (continued 100 mg b.i.d., week 12): 0.80 mmol/L
[total cholesterol] Median CFB (continued 100 mg b.i.d., week 16): 0.53 mmol/L
[total cholesterol] Median CFB (continued 100 mg b.i.d., week 20): 0.50 mmol/L
[total cholesterol] Median CFB (continued 100 mg b.i.d., week 24): 0.42 mmol/L
[total cholesterol] Median CFB (continued 200 mg q.d., week 1): 0.25 mmol/L
[total cholesterol] Median CFB (continued 200 mg q.d., week 2): 0.34 mmol/L
[total cholesterol] Median CFB (continued 200 mg q.d., week 4): 0.33 mmol/L
[total cholesterol] Median CFB (continued 200 mg q.d., week 8): 0.54 mmol/L
[total cholesterol] Median CFB (continued 200 mg q.d., week 12): 0.36 mmol/L
[total cholesterol] Median CFB (continued 200 mg q.d., week 16): 0.34 mmol/L
[total cholesterol] Median CFB (continued 200 mg q.d., week 20): 0.47 mmol/L
[total cholesterol] Median CFB (increased from 25 mg b.i.d. to 50 mg b.i.d at 12 weeks, week 1): -0.07 mmol/L
[total cholesterol] Median CFB (increased from 25 mg b.i.d. to 50 mg b.i.d at 12 weeks, week 2): 0.07 mmol/L
[total cholesterol] Median CFB (increased from 25 mg b.i.d. to 50 mg b.i.d at 12 weeks, week 4): -0.15 mmol/L
[total cholesterol] Median CFB (increased from 25 mg b.i.d. to 50 mg b.i.d at 12 weeks, week 8): -0.23 mmol/L
[total cholesterol] Median CFB (increased from 25 mg b.i.d. to 50 mg b.i.d at 12 weeks, week 12): -0.12 mmol/L
[total cholesterol] Median CFB (increased from 25 mg b.i.d. to 50 mg b.i.d at 12 weeks, week 16): 0.09 mmol/L
[total cholesterol] Median CFB (increased from 25 mg b.i.d. to 50 mg b.i.d at 12 weeks, week 20): -0.29 mmol/L
[total cholesterol] Median CFB (increased from 25 mg b.i.d. to 50 mg b.i.d at 12 weeks, week 24): 0.08 mmol/L
[total cholesterol] Median CFB (increased from 50 mg q.d. to 100 mg q.d. at 12 weeks, week 1): 0.05 mmol/L
[total cholesterol] Median CFB (increased from 50 mg q.d. to 100 mg q.d. at 12 weeks, week 2): 0.15 mmol/L
[total cholesterol] Median CFB (increased from 50 mg q.d. to 100 mg q.d. at 12 weeks, week 4): 0.18 mmol/L
[total cholesterol] Median CFB (increased from 50 mg q.d. to 100 mg q.d. at 12 weeks, week 8): 0.16 mmol/L
[total cholesterol] Median CFB (increased from 50 mg q.d. to 100 mg q.d. at 12 weeks, week 12): 0.05 mmol/L
[total cholesterol] Median CFB (increased from 50 mg q.d. to 100 mg q.d. at 12 weeks, week 16): 0.40 mmol/L
[total cholesterol] Median CFB (increased from 50 mg q.d. to 100 mg q.d. at 12 weeks, week 20): 0.35 mmol/L
[total cholesterol] Median CFB (increased from 50 mg q.d. to 100 mg q.d. at 12 weeks, week 24): 0.31 mmol/L
[total cholesterol] Median CFB (placebo switched to 100 mg q.d. at week 12, week 16): -0.30 mmol/L
[total cholesterol] Median CFB (placebo switched to 100 mg q.d. at week 12, week 20): -0.20 mmol/L
[total cholesterol] Median CFB (placebo switched to 100 mg q.d. at week 12, week 24): -0.15 mmol/L
[total cholesterol] Mean percentage CFB - 24 weeks results (from 25 mg b.i.d. to 50 mg b.i.d at 12 weeks (N = 17), week 20): −5.02%
[total cholesterol] Mean percentage CFB - 24 weeks results (placebo switched to 100 mg q.d. at week 12 (N = 15), week 16): −3.17%
[total cholesterol] Mean percentage CFB - 24 weeks results (placebo switched to 100 mg q.d. at week 12 (N = 15), week 20): −3.11%
[total cholesterol] Mean percentage CFB - 24 weeks results (placebo switched to 100 mg q.d. at week 12 (N = 15), week 24): −4.73%
